We go through seven sequences from publication PMC11055865.

A weaker result is weaker than the reference pair of the same experiment. For some of these results: Protein sequences can lack the tags named with them. For some of these results: For at least one entry, the source does not settle the construct or the ends of the probe. For some of these results: At least one verdict rests on a figure or table, not on a statement of the authors.

The test system of one data set is T1, HROB-FLAG T126P (human).
T1 sequence (looked up): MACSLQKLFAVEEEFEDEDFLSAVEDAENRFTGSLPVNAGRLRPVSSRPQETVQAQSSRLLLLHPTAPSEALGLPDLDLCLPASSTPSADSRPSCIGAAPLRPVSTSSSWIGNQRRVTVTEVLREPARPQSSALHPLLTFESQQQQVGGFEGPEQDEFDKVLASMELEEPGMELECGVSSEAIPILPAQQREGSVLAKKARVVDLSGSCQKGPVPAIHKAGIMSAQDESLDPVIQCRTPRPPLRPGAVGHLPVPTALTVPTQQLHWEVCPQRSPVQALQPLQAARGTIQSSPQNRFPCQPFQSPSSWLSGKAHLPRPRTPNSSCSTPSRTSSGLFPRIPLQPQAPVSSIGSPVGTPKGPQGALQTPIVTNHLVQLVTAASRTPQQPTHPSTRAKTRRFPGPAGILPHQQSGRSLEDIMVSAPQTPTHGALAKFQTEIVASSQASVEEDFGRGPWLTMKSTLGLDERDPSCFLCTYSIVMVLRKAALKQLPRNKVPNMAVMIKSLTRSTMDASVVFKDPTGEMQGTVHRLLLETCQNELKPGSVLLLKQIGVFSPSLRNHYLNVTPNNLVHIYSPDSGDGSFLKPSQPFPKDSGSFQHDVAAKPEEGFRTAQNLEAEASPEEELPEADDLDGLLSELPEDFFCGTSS
Nature of the data set: EMSA. To be noted: 3 mM EDTA, EMSA: 25 mM Tris-acetate pH 7.5, 3 mM EDTA (or 4 mM ATP/ATPgS + 1 mM Mg acetate), 1 mM DTT, 0.1 mg/ml BSA, 1 nM DNA (100 ng for M13), 15 min on ice, gels at 4 C, recombinant protein, residues 1-646, protein details: C-terminal FLAG. Background: Mobility shift assays separate free from complexed probe on a gel.

Data set [1] has as its system pMCM8 (phosphorylated complex) + pMCM9 (phosphorylated complex). Nature of the data set: EMSA. As to conditions: 3 mM EDTA, EMSA: 25 mM Tris-acetate pH 7.5, 3 mM EDTA (or 4 mM ATP/ATPgS + 1 mM Mg acetate), 1 mM DTT, 0.1 mg/ml BSA, 1 nM DNA (100 ng for M13), 15 min on ice, gels at 4 C, recombinant protein, protein details: N-terminal FLAG,N-terminal MBP.
Setting [2] is: not bound almost at all, label: 3' 32P-dC on PC1253.

Turning to “TGGGTCAACGTGGGCAAAGATGTCCTAGCAATGTAATCGTCTATGACGTT (double strand) [dsDNA (PC1253/PC1253C)]”, in the data set on HROB-FLAG T126P (human) (setting [2]), the binding result was “binds more weakly”.

As to “TGGGTCAACGTGGGCAAAGATGTCCTAGCAATGTAATCGTCTATGACGTT / TGCCGAATTCTACCAGTGCCAGTGATGGACATCTTTGCCCACGTTGACCC / GTCGGATCCTCTAGACAGCTCCATGATCACTGGCACTGGTAGAATTCGGC / CAACGTCATAGACGATTACATTGCTACATGGAGCTGTCTAGAGGATCCGA [Holliday junction (PC1253/PC1254/PC1255/PC1256)]”, in data set [1] (no ATP, highest affinity, label: 3' 32P-dC on PC1253, folded or branched DNA), the binding result is reported as “binds”.

As to “GTCGGATCCTCTAGACAGCTCCATGATCACTGGCACTGGTAGAATTCGGC / CATGGAGCTGTCTAGAGGATCCGAC [3' overhang (PC1255/314)]”, the binding result in the data set on HROB-FLAG T126P (human) (not bound almost at all, label: 3' 32P-dC on PC1255) was “binds more weakly”; in data set [1] (only slightly less than HJ and Y, label: 3' 32P-dC on PC1255) it was “binds more weakly”.

As to “TGCCGAATTCTACCAGTGCCAGTGATGGACATCTTTGCCCACGTTGACCC / TGGGTCAACGTGGGCAAAGATGTCCTAGCAATGTAATCGTCTATGACGTT [Y-structure (PC1254/PC1253)]”, in data set [1] (no ATP, highest affinity, label: 3' 32P-dC on PC1254, folded or branched DNA), the binding result is reported as “binds”.

Regarding “TGGGTCAACGTGGGCAAAGATGTCCTAGCAATGTAATCGTCTATGACGTT [PC1253 (50 nt ssDNA)]”, in the data set on HROB-FLAG T126P (human) (less efficient than 93 nt, label: 3' 32P-dC, single-stranded DNA), the binding result was “binds more weakly”.

“GAGATCTATCTGGTGCCTTCTGACAGTGAATGGGTAACGAATCGTAATAGTCTCTAGACAGCATGTCCTAGCAATGTAATCGTCTATGACGTC [X12-3 HJ3 (93 nt ssDNA)]”: the binding result was “binds” in data set [1] (30 mM NaCl, label: 3' 32P-dC (terminal transferase), single-stranded DNA) and “binds more weakly” in data set [1] (100 mM NaCl, binding inhibited by salt, label: 3' 32P-dC (terminal transferase), single-stranded DNA).

With “TGGGTCAACGTGGGCAAAGATGTCCTAGCAATGTAATCGTCTATGACGTT / AACGTCATAGACGATTACATTGCTA [5' overhang (PC1253/312)]”, the binding result in the data set on HROB-FLAG T126P (human) (setting [2]) is on record as “binds more weakly”; in data set [1] (only slightly less than HJ and Y, label: 3' 32P-dC on PC1253), “binds more weakly”.
